In publication PMC10388543:

Target: CdWRKY2 (bermudagrass [Cynodon dactylon (L.) Pers.])
Assay: two-hybrid; pGBKT7-CdWRKY2 co-transformed with pGADT7-MAPK3 or pGADT7-AtWRKY46 into Y2H gold strain; growth on SD/-Trp/-Leu and SD/-Trp/-Leu/-Ade/-His plates; pGBKT7-53/pGADT7-T as positive control

| Binder | binding |
| --- | --- |
| AtMAPK3 (enzyme, UniProt Q39023 1-370) MNTGGGQYTDFPAVETHGGQFISYDIFGSLFEITSKYRPPIIPIGRGAYGIVCSVLDTETNELVAMKKIANAFDNHMDAKRTLREIKLLRHLDHENIIAIRDVVPPPLRRQFSDVYISTELMDTDLHQIIRSNQSLSEEHCQYFLYQLLRGLKYIHSANIIHRDLKPSNLLLNANCDLKICDFGLARPTSENDFMTEYVVTRWYRAPELLLNSSDYTAAIDVWSVGCIFMELMNRKPLFPGKDHVHQMRLLTELLGTPTESDLGFTHNEDAKRYIRQLPNFPRQPLAKLFSHVNPMAIDLVDRMLTFDPNRRITVEQALNHQYLAKLHDPNDEPICQKPFSFEFEQQPLDEEQIKEMIYQEAIALNPTYG | binds |
| AtWRKY46 (protein, UniProt Q9SKD9 1-295) MMMEEKLVINELELGKELANRLMNNLKHTSSVDSNKTLISDILRIYQNAIFMLSFNQDKNILKRSLEIDGKDSKNVFKKRKVSEKNTEKVKVFVATEQENGSIDDGHCWRKYGQKEIHGSKNPRAYYRCTHRFTQDCLAVKQVQKSDTDPSLFEVKYLGNHTCNNITSPKTTTNFSVSLTNTNIFEGNRVHVTEQSEDMKPTKSEEVMISLEDLENKKNIFRTFSFSNHEIENGVWKSNLFLGNFVEDLSPATSGSAITSEVLSAPAAVENSETADSYFSSLDNIIDFGQDWLWS | no binding |

Results are given in words; binding and its absence hold for the method and conditions named. Binding calls can cover weak binding; strength is not graded here.
